In the supplement of paper PMC7877785:
± gives the uncertainty stated by the source. The uncertainty is large for many entries.

Test: self-splicing fitness, log relative to wild type (ln ratio); higher = more splicing; Tetrahymena group I intron in knt gene, E. coli kanamycin selection, DiMSum; sequences stand for … in CUCUCU…GGAGGGAAAAGUUAUCAGGCAUGCACCUGGUAGCUAGUCUUUAAACCAAUAGAUUGCAUCGGUUUAAAAGGCAAGACCGUCAAAUUGCGGGAAAGGGGUCAACAGCCGUUCAGUACCAAGUCUCAGGGGAAACUUUGAGAUGGCCUUGCAAAGGGUAUGGUAAUAAGCUGACGGACAUGGUCCUAACCACGCAGCCAAGUCCUAAGUCAACAGAUCUUCUGUUGAUAUGGAUGCAGUUCACAGACUAAAUGUCGGUCGGGGAAGAUGUAUUCUUCUCAUAAGAUAUAGUCGGACCUCUCCUUAAUGGGAGCUAGCGGAUGAAGUGAUGCAACACUGGAGCCGCUGGGAACUAAUUUGUAUGCGAAAGUAUAUUGAUUAGUUUUGGAGUACUCGUGGUCG
Summary of the method: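 Colonies from six replicate transformations of E. coli BL21(DE3) were pooled and amplicon-sequenced on an Illumina HiSeq 2500. The library placed an intron with all eight P1ex-region nucleotides randomised inside the knt kanamycin-resistance gene on pET-22b(+), and cells grew overnight at 37°C or 30°C on LB agar with or without 25 μg/mL kanamycin (plus 100 μg/mL carbenicillin, 50 μM IPTG, 0.2% rhamnose). Fitness is the DiMSum error-weighted combination of wild-type-normalised replicate fold changes, kanamycin versus none.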

Sequence	self-splicing fitness (ln) (30 °C)	self-splicing fitness (ln) (37 °C)
UAUAAGCAAUAUUACGAUAU	-2.9 ± 0.21	-1.96 ± 0.2
UCGUAGCAAUAUUACGCCCC	-2.28 ± 0.56	-1.42 ± 0.56
GGAUAGCAAUAUUACGCGCC	–	0.819 ± 0.51
UUCUAGCAAUAUUACGGCAG	0.185 ± 0.42	-0.821 ± 0.39
CUGAAGCAAUAUUACGGCAG	-0.522 ± 0.11	-0.657 ± 0.14
ACGUAGCAAUAUUACGGCCC	-0.341 ± 0.15	0.0459 ± 0.25
CGGGAGCAAUAUUACGCUCG	-2.5 ± 0.73	–
ACGGAGCAAUAUUACGUUUC	-4.41 ± 0.72	-2.39 ± 1.1
AGGUAGCAAUAUUACGUCUA	-0.666 ± 0.015	-0.259 ± 0.033
GCACAGCAAUAUUACGUUCU	-0.579 ± 0.054	-0.524 ± 0.068
AGUCAGCAAUAUUACGGCUU	-4.02 ± 0.6	–
UCGUAGCAAUAUUACGCAGC	–	-3.16 ± 0.74
CGUAAGCAAUAUUACGGAUA	-3.81 ± 0.73	–
CUGAAGCAAUAUUACGACGU	-2.75 ± 0.12	-1.09 ± 0.1
CGGGAGCAAUAUUACGUCCA	-1.17 ± 0.63	-1.07 ± 0.9
UAUCAGCAAUAUUACGUGUA	-0.198 ± 0.069	0.204 ± 0.079
GCGAAGCAAUAUUACGCAGU	-3.19 ± 1.2	-2.39 ± 1.1
CUUCAGCAAUAUUACGUCAA	–	-3.44 ± 0.73
GAAGAGCAAUAUUACGACGA	-1.32 ± 1.4	–
GGAUAGCAAUAUUACGCUGC	–	-1.88 ± 1.2
AUCGAGCAAUAUUACGCCUA	-2.72 ± 0.51	–
UGUAAGCAAUAUUACGACAC	–	-2.04 ± 0.56
GGUUAGCAAUAUUACGCUUC	-3.25 ± 0.77	-1.95 ± 0.57
GCGGAGCAAUAUUACGCUUC	–	-1.34 ± 0.63

In another format: entries from further up
ACGUAGCAAUAUUACGGCCC
  self-splicing fitness (ln) (30 °C) = -0.341 ± 0.15; self-splicing fitness (ln) (37 °C) = 0.0459 ± 0.25
ACGGAGCAAUAUUACGUUUC
  self-splicing fitness (ln) (30 °C) = -4.41 ± 0.72; self-splicing fitness (ln) (37 °C) = -2.39 ± 1.1

Next part

Sequence	self-splicing fitness (ln) (30 °C)	self-splicing fitness (ln) (37 °C)
AGUUAGCAAUAUUACGCCAC	–	-2.52 ± 1.1
UGAGAGCAAUAUUACGGUAC	-3.4 ± 1.1	–
AGCUAGCAAUAUUACGGACA	-1.06 ± 0.12	0.0203 ± 0.15
UCUGAGCAAUAUUACGAUAC	-3.31 ± 0.74	–
CGGGAGCAAUAUUACGGGGG	–	-2.23 ± 0.51
GUUCAGCAAUAUUACGUACC	-2.66 ± 1.1	0.255 ± 0.81
AAUAAGCAAUAUUACGAAGG	-3.39 ± 0.48	-2.04 ± 0.39
CUGCAGCAAUAUUACGCGAU	-1.12 ± 0.09	-0.167 ± 0.12
UGCAAGCAAUAUUACGCCAC	-4.28 ± 0.52	–
UUCGAGCAAUAUUACGCGCG	-2.73 ± 0.62	-2.48 ± 0.63
UUUGAGCAAUAUUACGACCG	-4.38 ± 0.72	–
AGGCAGCAAUAUUACGCUAC	–	-2.48 ± 1.1
CCGUAGCAAUAUUACGCUUA	-3.52 ± 0.45	-1.7 ± 0.35
CUGAAGCAAUAUUACGAGGG	-2.03 ± 0.11	-1.25 ± 0.14
GUACAGCAAUAUUACGAGUA	-3.53 ± 0.73	–
UCGCAGCAAUAUUACGGUGU	-4.31 ± 0.72	–
UAUGAGCAAUAUUACGCCGU	-2.95 ± 0.77	–
AUCCAGCAAUAUUACGUCGA	-0.897 ± 0.097	-0.557 ± 0.12
AGAGAGCAAUAUUACGCCAC	-1.94 ± 0.82	–
CUAGAGCAAUAUUACGGAUU	-5.04 ± 0.72	–
CAGCAGCAAUAUUACGGUUC	-2.92 ± 0.26	-1.5 ± 0.17
UCAUAGCAAUAUUACGGCGU	-3.73 ± 0.14	-3.17 ± 0.19
UUGUAGCAAUAUUACGAUGC	-5.04 ± 0.58	–
CUCGAGCAAUAUUACGGCUC	-4.61 ± 0.72	-2.25 ± 0.55

Sequence	self-splicing fitness (ln) (30 °C)	self-splicing fitness (ln) (37 °C)
GCUUAGCAAUAUUACGCGCC	–	0.862 ± 0.51
CGUGAGCAAUAUUACGCCCG	–	-0.307 ± 0.77
UCAAAGCAAUAUUACGGAAC	–	-2.49 ± 0.5
ACCCAGCAAUAUUACGCCAU	-4.24 ± 0.23	-1.88 ± 0.16
UCAUAGCAAUAUUACGGUAU	-5.04 ± 1	–
AUAGAGCAAUAUUACGUGAA	-3.27 ± 1.1	–
AGUGAGCAAUAUUACGGAAG	–	-3.64 ± 1
AGAGAGCAAUAUUACGAGAA	-1.55 ± 1.2	-1.54 ± 0.71
GCUAAGCAAUAUUACGCGGC	-0.424 ± 0.19	-2.64 ± 0.5
UGUAAGCAAUAUUACGGGGA	-4.39 ± 0.51	–
AAUAAGCAAUAUUACGCAAA	-1.62 ± 0.23	-2.05 ± 0.25
UUAGAGCAAUAUUACGCCCC	-2.02 ± 1.2	-0.869 ± 0.78
UAAAAGCAAUAUUACGUGAC	-3.65 ± 0.52	–
AGUGAGCAAUAUUACGAAUC	-4.12 ± 1	–
GAGGAGCAAUAUUACGGCAG	-2.79 ± 0.71	–
GGUGAGCAAUAUUACGUUCA	-3.86 ± 0.73	–
GUUGAGCAAUAUUACGCAGU	-3.35 ± 1	–
AUUAAGCAAUAUUACGUUGU	-1.98 ± 0.21	-2.8 ± 0.32
CUGGAGCAAUAUUACGCACA	-2.95 ± 0.75	-1.8 ± 0.66
UUAGAGCAAUAUUACGUACG	-0.844 ± 0.11	-1.06 ± 0.17
UUGGAGCAAUAUUACGCGCC	–	-0.778 ± 0.71
CUUUAGCAAUAUUACGAAGU	-2.53 ± 0.77	–
CCCGAGCAAUAUUACGUGAC	-4.48 ± 0.51	–
CGGUAGCAAUAUUACGCGUA	-0.576 ± 0.59	-2.76 ± 0.76

Sequence	self-splicing fitness (ln) (30 °C)	self-splicing fitness (ln) (37 °C)
GUCUAGCAAUAUUACGGGGC	-3.31 ± 0.74	-2.34 ± 0.36
GUGGAGCAAUAUUACGAGAA	0.234 ± 0.67	-1.37 ± 1.2
CUCAAGCAAUAUUACGGACC	-3.48 ± 0.6	-1.06 ± 0.53
UUCGAGCAAUAUUACGAAUC	-5.31 ± 1	–
CAAGAGCAAUAUUACGUUCC	–	-1.65 ± 0.54
UUGCAGCAAUAUUACGCACC	–	-1.79 ± 1.2
CUCGAGCAAUAUUACGAAUC	-3.12 ± 0.62	-4.24 ± 1
UGGGAGCAAUAUUACGUGAC	-3.71 ± 0.6	–
CGAGAGCAAUAUUACGUUAA	–	-2.57 ± 0.54
UUUGAGCAAUAUUACGAUCC	-2.65 ± 1.1	-0.892 ± 0.57
UCGGAGCAAUAUUACGCAAU	–	-1.61 ± 0.61
UUUGAGCAAUAUUACGCUGU	–	-2.1 ± 0.58
CGUGAGCAAUAUUACGGGUA	-2.65 ± 1.1	–
GCGGAGCAAUAUUACGUGAC	-0.953 ± 0.55	–
AGCGAGCAAUAUUACGGUAG	-4.58 ± 0.51	–
CUGAAGCAAUAUUACGCACC	–	-3.25 ± 1
UUUGAGCAAUAUUACGACCA	-3.81 ± 0.75	-0.595 ± 1.4
CGCCAGCAAUAUUACGAACU	-3.09 ± 0.63	–
GUGGAGCAAUAUUACGAGAC	-0.619 ± 0.52	-0.146 ± 0.5
AGAGAGCAAUAUUACGGACA	-2.38 ± 0.76	–
GUUAAGCAAUAUUACGCUUC	-1.78 ± 0.84	–
UCUAAGCAAUAUUACGACUA	-3.07 ± 0.25	-0.59 ± 0.15
ACCGAGCAAUAUUACGCCGG	-4.79 ± 0.59	-2.58 ± 0.62
UCGCAGCAAUAUUACGAGCG	-1.97 ± 0.12	-0.806 ± 0.13

Single records (already shown). Order of values: self-splicing fitness (ln) (30 °C) | self-splicing fitness (ln) (37 °C)
UUGUAGCAAUAUUACGAUGC is listed as -5.04 ± 0.58 | –
AUCGAGCAAUAUUACGCCUA is listed as -2.72 ± 0.51 | –
UCGGAGCAAUAUUACGCAAU is listed as – | -1.61 ± 0.61
UCGCAGCAAUAUUACGAGCG is listed as -1.97 ± 0.12 | -0.806 ± 0.13

More records.

Sequence	self-splicing fitness (ln) (30 °C)	self-splicing fitness (ln) (37 °C)
CAGUAGCAAUAUUACGAAAC	-3.21 ± 0.56	–
GUCGAGCAAUAUUACGAGCA	–	-0.634 ± 0.52
AGGAAGCAAUAUUACGGAUA	-2.38 ± 0.56	–
UCCCAGCAAUAUUACGCUUC	-2.73 ± 0.19	-2.76 ± 0.48
UCAGAGCAAUAUUACGAUCC	–	-1.15 ± 0.63
CGAGAGCAAUAUUACGAGAC	–	-2.71 ± 0.62
UAAUAGCAAUAUUACGAAGC	-3.42 ± 1	–
GCUGAGCAAUAUUACGCACC	-1.97 ± 1.2	–
CGAGAGCAAUAUUACGCAAU	–	-1.27 ± 0.56
UGGUAGCAAUAUUACGCAUC	-3.09 ± 0.53	–
AGAUAGCAAUAUUACGAGAA	-1.89 ± 0.54	-0.625 ± 0.65
GACUAGCAAUAUUACGGGCC	-3.41 ± 0.58	–
AUACAGCAAUAUUACGCGGC	–	-2.69 ± 0.61
GGGAAGCAAUAUUACGCCCG	-1.02 ± 0.52	–
CUAGAGCAAUAUUACGCCGG	-3.93 ± 0.6	–
GUGUAGCAAUAUUACGGUCA	-1.36 ± 0.14	-2.06 ± 0.12
AGUAAGCAAUAUUACGAAUA	–	-1.82 ± 0.58
AAUUAGCAAUAUUACGCCAC	-1.15 ± 0.76	–
CUAUAGCAAUAUUACGGCCC	–	-1.79 ± 1.2
UUGGAGCAAUAUUACGGCGC	-3.12 ± 1.1	-1.5 ± 0.69
GCUGAGCAAUAUUACGCGCA	–	-0.9 ± 0.61
GACGAGCAAUAUUACGACCG	-1.21 ± 0.57	-2.76 ± 1.1
UUGUAGCAAUAUUACGCCUC	–	-2.39 ± 1.1
